{"source": "paper doi:10.1101/2022.09.07.506877", "key": {"[1]": {"target": "type III-E CRISPR-Cas effector gRAMP from Candidatus \"Scalindua brodae\" (Candidatus \"Scalindua brodae\")", "experiment": "cryo-EM structure"}, "[2]": {"target": "type III-E CRISPR-Cas effector gRAMP from Candidatus \"Scalindua brodae\" (Candidatus \"Scalindua brodae\")", "experiment": "cryo-EM structure", "remark": "listed apart in the source"}}, "note": "Where two headings read alike, the source gives them in different places. These are yes or no findings as the source states them, for the method shown. Binding seen in cells or lysates may run through a third protein. Binding calls can cover weak binding; strength is not graded here.", "data": [{"substance": "caspase-like peptidase TPR-CHAT (from UniProt A0A0B0EKL4)", "values": [{"measurement": "binding", "setting": "[1]", "result": "binds"}, {"measurement": "binding", "setting": "[2]", "result": "binds"}]}]}
